Reference: PMC9851613
These are yes or no findings as the source states them, for the method shown. In cells and extracts the contact can be indirect. Some binding calls cover weakened binding; strength is not graded here.

The chains behind the UniProt entries cited, without tags or fusion partners.
UniProt P20226: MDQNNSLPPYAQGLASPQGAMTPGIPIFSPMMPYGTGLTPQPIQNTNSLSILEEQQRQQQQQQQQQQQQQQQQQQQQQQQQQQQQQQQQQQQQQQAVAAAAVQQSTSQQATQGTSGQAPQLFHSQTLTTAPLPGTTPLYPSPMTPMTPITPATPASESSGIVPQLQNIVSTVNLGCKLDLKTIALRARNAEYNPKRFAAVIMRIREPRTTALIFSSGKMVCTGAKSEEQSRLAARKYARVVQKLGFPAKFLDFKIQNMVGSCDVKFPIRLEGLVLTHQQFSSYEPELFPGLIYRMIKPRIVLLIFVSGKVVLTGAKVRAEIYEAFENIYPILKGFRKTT

How the values were obtained:
[1] = target: T1, TP73 (human (endogenous in HepG2)) (UniProt O15350); test: co-IP; 200 uL HepG2 nuclear extract (extraction buffer 25 mM Tris-HCl pH 7.4, 300 mM NaCl, 1 mM DTT, 1% triton-100, 0.1% SDS) with 5 ug antibody against TP73, TBP, GTF3C2 or GTF3C3; protein A/G agarose; washed with modified RIPA buffer (300 mM NaCl); western blot
T1 sequence: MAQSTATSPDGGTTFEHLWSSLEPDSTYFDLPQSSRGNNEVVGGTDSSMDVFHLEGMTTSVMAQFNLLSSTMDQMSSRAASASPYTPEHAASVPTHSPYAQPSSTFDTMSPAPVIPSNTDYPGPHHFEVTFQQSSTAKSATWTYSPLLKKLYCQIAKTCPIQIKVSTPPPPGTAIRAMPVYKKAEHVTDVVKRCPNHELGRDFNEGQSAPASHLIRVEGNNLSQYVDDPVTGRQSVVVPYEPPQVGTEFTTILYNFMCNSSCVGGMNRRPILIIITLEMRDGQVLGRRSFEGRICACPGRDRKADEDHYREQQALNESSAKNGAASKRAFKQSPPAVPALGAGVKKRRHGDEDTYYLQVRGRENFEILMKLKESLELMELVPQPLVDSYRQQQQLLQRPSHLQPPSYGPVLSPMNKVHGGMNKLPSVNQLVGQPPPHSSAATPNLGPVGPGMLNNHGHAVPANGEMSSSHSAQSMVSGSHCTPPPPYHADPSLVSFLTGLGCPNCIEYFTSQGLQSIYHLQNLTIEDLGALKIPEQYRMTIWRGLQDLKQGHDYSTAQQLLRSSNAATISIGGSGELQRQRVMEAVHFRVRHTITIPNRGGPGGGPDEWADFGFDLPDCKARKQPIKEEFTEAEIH

[2] = target: T2, BRF1 (human (endogenous in HepG2)) (UniProt Q92994); test: co-IP; HepG2 cells expressing TP73 shRNA or control shRNA; antibodies against TBP, BRF1 and BRF2; western blot
T2 sequence: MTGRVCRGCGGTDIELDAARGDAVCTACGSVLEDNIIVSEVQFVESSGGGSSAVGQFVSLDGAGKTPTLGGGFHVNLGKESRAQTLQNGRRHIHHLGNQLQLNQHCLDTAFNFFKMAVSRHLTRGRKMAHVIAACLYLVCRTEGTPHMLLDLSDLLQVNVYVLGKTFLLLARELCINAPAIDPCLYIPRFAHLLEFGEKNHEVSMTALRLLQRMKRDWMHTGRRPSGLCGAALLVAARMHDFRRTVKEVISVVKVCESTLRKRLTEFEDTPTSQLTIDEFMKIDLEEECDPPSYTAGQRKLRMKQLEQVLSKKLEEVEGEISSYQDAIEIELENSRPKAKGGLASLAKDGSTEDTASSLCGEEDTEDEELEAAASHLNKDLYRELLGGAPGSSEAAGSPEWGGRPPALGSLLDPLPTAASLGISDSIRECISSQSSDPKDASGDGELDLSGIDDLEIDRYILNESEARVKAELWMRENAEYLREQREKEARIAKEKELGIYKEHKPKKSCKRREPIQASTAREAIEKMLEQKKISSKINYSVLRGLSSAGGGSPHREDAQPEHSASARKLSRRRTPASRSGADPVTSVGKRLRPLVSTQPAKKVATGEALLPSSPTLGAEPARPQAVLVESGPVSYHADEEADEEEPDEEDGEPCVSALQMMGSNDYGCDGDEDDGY

[3] = target: TBP (human (endogenous in HepG2)) (UniProt P20226); test: co-IP; 200 uL HepG2 nuclear extract (extraction buffer 25 mM Tris-HCl pH 7.4, 300 mM NaCl, 1 mM DTT, 1% triton-100, 0.1% SDS) with 5 ug antibody against TP73, TBP, GTF3C2 or GTF3C3; protein A/G agarose; washed with modified RIPA buffer (300 mM NaCl); western blot
[4] = target: T3, GTF3C2 (human (endogenous in HepG2)) (UniProt Q8WUA4); test: as above
T3 sequence: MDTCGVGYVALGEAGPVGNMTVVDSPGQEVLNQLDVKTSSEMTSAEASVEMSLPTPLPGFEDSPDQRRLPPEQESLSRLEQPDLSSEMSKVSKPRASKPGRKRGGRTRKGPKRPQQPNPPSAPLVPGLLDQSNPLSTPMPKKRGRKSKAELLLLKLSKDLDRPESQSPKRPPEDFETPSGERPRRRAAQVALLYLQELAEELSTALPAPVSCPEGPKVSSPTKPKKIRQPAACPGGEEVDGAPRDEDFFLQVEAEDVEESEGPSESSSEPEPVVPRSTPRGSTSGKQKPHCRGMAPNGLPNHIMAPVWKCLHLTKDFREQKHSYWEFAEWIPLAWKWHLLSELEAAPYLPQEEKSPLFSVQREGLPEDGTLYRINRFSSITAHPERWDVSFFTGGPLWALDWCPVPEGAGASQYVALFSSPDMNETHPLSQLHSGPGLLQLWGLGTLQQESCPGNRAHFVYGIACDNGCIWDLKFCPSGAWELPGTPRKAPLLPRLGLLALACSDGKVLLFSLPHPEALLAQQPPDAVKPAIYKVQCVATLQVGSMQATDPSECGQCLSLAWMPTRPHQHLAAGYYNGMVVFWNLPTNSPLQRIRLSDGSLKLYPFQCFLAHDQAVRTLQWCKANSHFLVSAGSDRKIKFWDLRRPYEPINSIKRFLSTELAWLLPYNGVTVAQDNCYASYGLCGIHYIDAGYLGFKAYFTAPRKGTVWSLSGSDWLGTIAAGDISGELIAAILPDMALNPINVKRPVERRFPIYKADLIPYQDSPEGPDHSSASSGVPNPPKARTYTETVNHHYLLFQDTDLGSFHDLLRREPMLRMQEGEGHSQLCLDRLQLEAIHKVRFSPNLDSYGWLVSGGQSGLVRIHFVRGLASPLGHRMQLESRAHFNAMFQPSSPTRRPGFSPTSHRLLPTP

[5] = target: T4, GTF3C3 (human (endogenous in HepG2)) (UniProt Q9Y5Q9); test: as above
T4 sequence: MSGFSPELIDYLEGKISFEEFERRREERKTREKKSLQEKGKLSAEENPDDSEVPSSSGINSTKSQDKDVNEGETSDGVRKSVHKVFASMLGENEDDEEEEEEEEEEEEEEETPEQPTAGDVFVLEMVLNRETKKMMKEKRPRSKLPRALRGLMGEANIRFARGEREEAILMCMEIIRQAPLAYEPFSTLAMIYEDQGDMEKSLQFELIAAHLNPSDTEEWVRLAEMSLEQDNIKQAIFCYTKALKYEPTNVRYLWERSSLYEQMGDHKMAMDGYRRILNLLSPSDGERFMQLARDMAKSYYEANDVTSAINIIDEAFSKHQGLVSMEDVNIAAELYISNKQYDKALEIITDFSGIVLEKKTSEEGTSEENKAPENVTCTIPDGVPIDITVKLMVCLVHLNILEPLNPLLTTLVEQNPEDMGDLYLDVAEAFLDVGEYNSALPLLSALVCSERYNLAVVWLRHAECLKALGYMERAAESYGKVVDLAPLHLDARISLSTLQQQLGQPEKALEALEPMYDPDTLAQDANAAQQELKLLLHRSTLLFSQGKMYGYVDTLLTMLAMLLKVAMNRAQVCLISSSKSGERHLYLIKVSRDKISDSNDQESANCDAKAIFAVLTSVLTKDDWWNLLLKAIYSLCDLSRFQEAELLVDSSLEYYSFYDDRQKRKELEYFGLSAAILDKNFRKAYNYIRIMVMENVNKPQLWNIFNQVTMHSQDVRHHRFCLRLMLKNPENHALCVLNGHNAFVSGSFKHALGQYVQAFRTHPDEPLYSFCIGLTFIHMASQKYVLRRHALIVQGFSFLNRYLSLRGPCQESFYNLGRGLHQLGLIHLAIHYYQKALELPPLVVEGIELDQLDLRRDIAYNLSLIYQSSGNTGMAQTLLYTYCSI

[6] = target: TBP (human (endogenous in HepG2)) (UniProt P20226); test: co-IP; HepG2 cells expressing TP73 shRNA or control shRNA; antibodies against TBP, BRF1 and BRF2; western blot

In the case of TBP (from UniProt P20226 1-339), the binding [1] is reported as “binds” and the binding [2] is reported as “binds”.

B1: TP73 (protein, UniProt O15350 1-636)
chain: MAQSTATSPDGGTTFEHLWSSLEPDSTYFDLPQSSRGNNEVVGGTDSSMDVFHLEGMTTSVMAQFNLLSSTMDQMSSRAASASPYTPEHAASVPTHSPYAQPSSTFDTMSPAPVIPSNTDYPGPHHFEVTFQQSSTAKSATWTYSPLLKKLYCQIAKTCPIQIKVSTPPPPGTAIRAMPVYKKAEHVTDVVKRCPNHELGRDFNEGQSAPASHLIRVEGNNLSQYVDDPVTGRQSVVVPYEPPQVGTEFTTILYNFMCNSSCVGGMNRRPILIIITLEMRDGQVLGRRSFEGRICACPGRDRKADEDHYREQQALNESSAKNGAASKRAFKQSPPAVPALGAGVKKRRHGDEDTYYLQVRGRENFEILMKLKESLELMELVPQPLVDSYRQQQQLLQRPSHLQPPSYGPVLSPMNKVHGGMNKLPSVNQLVGQPPPHSSAATPNLGPVGPGMLNNHGHAVPANGEMSSSHSAQSMVSGSHCTPPPPYHADPSLVSFLTGLGCPNCIEYFTSQGLQSIYHLQNLTIEDLGALKIPEQYRMTIWRGLQDLKQGHDYSTAQQLLRSSNAATISIGGSGELQRQRVMEAVHFRVRHTITIPNRGGPGGGPDEWADFGFDLPDCKARKQPIKEEFTEAEIH
With B1 the binding [3] was “binds”, the binding [4] was “binds” and the binding [5] was “binds”.

B2: BRF1 (protein, UniProt Q92994 1-677)
chain: MTGRVCRGCGGTDIELDAARGDAVCTACGSVLEDNIIVSEVQFVESSGGGSSAVGQFVSLDGAGKTPTLGGGFHVNLGKESRAQTLQNGRRHIHHLGNQLQLNQHCLDTAFNFFKMAVSRHLTRGRKMAHVIAACLYLVCRTEGTPHMLLDLSDLLQVNVYVLGKTFLLLARELCINAPAIDPCLYIPRFAHLLEFGEKNHEVSMTALRLLQRMKRDWMHTGRRPSGLCGAALLVAARMHDFRRTVKEVISVVKVCESTLRKRLTEFEDTPTSQLTIDEFMKIDLEEECDPPSYTAGQRKLRMKQLEQVLSKKLEEVEGEISSYQDAIEIELENSRPKAKGGLASLAKDGSTEDTASSLCGEEDTEDEELEAAASHLNKDLYRELLGGAPGSSEAAGSPEWGGRPPALGSLLDPLPTAASLGISDSIRECISSQSSDPKDASGDGELDLSGIDDLEIDRYILNESEARVKAELWMRENAEYLREQREKEARIAKEKELGIYKEHKPKKSCKRREPIQASTAREAIEKMLEQKKISSKINYSVLRGLSSAGGGSPHREDAQPEHSASARKLSRRRTPASRSGADPVTSVGKRLRPLVSTQPAKKVATGEALLPSSPTLGAEPARPQAVLVESGPVSYHADEEADEEEPDEEDGEPCVSALQMMGSNDYGCDGDEDDGY
B2 was tested, and the binding [6] was “binds”.
